The supplement of paper PMC12819154, “High-throughput peptide-centric local stability assay extends protein–ligand identification to membrane proteins, tissues and bacteria” (Nature Structural & Molecular Biology, 2025)
This is one part of the list. Small differences around the control level are noise.

Chains of the proteins cited; added tags and fusions are not shown. Lines headed by an entry give the natural chain unless they say otherwise; changes in a name come on top.
UniProt P49790, whole entry: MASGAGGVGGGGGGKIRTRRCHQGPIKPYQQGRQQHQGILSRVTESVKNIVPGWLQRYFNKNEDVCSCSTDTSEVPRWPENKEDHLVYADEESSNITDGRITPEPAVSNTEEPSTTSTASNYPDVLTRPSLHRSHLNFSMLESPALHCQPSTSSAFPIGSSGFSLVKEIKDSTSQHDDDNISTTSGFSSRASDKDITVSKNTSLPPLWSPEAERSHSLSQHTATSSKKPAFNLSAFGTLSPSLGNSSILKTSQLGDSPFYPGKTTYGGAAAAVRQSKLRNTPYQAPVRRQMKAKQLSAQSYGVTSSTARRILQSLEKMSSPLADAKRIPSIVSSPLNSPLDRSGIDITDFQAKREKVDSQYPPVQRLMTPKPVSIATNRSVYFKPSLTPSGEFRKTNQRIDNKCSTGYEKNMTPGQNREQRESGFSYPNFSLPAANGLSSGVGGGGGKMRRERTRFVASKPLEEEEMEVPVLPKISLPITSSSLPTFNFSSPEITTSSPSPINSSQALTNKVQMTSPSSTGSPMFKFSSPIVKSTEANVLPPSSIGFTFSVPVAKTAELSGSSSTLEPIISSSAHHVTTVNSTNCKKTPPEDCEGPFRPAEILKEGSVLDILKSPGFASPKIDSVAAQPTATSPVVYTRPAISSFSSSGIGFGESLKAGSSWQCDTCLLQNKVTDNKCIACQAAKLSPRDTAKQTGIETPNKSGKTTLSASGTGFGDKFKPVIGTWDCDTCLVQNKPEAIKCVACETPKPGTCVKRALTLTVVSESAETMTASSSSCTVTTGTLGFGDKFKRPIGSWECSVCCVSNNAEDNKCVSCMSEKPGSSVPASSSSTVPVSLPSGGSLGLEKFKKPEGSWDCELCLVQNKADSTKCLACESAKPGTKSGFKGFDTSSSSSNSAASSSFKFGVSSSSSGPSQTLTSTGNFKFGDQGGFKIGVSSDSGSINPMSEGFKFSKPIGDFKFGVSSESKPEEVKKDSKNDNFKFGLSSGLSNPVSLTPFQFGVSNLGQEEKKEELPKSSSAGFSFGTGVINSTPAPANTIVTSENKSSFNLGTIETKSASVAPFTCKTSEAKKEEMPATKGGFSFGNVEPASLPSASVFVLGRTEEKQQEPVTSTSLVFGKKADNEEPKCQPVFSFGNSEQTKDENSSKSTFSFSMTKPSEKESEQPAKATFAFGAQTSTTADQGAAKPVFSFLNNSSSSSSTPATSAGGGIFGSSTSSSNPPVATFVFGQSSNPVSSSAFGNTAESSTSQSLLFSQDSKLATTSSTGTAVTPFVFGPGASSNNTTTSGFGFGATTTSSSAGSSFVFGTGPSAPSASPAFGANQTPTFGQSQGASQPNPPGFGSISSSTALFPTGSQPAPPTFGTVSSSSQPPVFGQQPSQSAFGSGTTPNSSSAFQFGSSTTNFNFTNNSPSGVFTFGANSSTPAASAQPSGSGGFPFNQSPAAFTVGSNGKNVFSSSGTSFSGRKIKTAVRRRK
UniProt P52630: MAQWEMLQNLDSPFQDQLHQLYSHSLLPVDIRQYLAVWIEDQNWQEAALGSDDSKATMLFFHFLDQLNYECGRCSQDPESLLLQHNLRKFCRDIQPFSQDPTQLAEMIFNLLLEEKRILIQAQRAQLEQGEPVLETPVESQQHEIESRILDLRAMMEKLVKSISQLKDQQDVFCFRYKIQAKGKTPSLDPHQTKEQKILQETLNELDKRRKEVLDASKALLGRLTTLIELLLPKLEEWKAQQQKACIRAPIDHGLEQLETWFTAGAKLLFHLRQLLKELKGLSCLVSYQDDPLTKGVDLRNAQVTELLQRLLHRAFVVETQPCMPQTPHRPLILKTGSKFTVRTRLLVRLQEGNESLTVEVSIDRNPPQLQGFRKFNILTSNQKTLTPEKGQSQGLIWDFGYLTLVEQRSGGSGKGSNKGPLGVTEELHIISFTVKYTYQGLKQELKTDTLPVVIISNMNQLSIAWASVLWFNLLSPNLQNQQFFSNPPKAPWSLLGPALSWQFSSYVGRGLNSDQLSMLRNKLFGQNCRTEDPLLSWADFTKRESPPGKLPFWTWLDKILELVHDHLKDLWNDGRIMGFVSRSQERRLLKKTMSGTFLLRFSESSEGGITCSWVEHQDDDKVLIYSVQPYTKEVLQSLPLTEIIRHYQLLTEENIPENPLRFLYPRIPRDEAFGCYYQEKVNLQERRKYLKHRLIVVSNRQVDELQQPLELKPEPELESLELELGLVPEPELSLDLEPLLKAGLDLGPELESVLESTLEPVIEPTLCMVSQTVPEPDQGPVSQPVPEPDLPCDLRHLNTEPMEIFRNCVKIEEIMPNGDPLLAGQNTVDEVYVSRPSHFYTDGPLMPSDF
UniProt P50395: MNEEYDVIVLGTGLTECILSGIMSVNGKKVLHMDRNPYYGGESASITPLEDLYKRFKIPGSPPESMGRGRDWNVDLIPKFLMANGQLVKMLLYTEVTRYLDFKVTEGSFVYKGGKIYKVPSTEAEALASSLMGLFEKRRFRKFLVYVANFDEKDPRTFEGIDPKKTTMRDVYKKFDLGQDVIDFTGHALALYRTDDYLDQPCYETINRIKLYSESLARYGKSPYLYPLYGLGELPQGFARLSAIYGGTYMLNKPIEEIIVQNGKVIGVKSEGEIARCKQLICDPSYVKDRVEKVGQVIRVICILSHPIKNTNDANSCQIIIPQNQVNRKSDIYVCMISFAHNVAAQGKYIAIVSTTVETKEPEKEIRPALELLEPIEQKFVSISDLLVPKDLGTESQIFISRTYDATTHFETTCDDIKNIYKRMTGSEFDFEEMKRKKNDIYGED
UniProt P50991: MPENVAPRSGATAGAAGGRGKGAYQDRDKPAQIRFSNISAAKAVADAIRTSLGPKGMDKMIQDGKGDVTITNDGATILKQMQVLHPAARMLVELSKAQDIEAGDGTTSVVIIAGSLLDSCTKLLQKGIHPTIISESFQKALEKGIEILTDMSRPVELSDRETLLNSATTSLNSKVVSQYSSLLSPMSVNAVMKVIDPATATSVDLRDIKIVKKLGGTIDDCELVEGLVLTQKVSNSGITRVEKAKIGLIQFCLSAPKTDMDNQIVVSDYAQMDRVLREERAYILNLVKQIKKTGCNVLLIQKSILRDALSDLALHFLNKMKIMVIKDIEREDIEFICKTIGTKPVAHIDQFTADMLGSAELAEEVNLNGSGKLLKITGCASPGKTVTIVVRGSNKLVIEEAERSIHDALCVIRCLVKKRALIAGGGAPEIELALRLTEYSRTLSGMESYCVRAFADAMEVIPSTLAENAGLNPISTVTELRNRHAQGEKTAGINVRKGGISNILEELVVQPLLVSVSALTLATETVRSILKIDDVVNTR
UniProt P47985: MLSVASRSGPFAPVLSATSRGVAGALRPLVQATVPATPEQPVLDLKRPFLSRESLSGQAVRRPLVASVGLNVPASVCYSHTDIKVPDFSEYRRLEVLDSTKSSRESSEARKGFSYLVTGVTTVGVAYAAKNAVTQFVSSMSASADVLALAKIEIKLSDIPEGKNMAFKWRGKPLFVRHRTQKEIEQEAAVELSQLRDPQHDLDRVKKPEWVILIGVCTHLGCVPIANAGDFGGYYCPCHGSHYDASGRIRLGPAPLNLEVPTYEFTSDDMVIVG
UniProt P51530: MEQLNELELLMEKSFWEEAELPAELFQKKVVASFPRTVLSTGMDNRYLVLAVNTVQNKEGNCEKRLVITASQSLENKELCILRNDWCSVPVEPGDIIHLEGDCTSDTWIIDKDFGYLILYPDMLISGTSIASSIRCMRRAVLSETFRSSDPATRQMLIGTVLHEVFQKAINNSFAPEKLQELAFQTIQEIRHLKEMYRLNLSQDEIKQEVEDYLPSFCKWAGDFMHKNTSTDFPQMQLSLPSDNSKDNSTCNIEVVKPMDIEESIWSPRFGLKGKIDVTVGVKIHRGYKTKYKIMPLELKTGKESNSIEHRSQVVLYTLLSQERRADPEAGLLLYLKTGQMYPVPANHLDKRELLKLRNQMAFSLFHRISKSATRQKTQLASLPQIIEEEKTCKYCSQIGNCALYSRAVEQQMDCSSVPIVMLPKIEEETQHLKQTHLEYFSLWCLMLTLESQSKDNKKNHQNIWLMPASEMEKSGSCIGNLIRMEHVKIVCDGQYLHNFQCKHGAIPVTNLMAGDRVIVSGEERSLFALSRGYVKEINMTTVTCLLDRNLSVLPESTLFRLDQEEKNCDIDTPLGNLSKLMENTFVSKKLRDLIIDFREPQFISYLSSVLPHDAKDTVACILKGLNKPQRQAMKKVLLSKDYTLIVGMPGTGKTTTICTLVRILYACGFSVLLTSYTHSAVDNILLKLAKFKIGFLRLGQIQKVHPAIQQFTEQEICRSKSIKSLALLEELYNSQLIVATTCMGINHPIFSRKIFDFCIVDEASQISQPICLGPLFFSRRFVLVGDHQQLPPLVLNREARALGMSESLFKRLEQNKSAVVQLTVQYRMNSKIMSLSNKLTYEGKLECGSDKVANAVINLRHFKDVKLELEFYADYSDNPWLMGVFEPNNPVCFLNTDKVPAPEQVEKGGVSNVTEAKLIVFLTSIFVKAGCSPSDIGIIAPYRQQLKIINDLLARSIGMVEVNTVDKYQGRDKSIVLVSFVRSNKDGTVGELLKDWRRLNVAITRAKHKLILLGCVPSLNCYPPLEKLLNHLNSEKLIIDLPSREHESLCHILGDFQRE
UniProt P49917: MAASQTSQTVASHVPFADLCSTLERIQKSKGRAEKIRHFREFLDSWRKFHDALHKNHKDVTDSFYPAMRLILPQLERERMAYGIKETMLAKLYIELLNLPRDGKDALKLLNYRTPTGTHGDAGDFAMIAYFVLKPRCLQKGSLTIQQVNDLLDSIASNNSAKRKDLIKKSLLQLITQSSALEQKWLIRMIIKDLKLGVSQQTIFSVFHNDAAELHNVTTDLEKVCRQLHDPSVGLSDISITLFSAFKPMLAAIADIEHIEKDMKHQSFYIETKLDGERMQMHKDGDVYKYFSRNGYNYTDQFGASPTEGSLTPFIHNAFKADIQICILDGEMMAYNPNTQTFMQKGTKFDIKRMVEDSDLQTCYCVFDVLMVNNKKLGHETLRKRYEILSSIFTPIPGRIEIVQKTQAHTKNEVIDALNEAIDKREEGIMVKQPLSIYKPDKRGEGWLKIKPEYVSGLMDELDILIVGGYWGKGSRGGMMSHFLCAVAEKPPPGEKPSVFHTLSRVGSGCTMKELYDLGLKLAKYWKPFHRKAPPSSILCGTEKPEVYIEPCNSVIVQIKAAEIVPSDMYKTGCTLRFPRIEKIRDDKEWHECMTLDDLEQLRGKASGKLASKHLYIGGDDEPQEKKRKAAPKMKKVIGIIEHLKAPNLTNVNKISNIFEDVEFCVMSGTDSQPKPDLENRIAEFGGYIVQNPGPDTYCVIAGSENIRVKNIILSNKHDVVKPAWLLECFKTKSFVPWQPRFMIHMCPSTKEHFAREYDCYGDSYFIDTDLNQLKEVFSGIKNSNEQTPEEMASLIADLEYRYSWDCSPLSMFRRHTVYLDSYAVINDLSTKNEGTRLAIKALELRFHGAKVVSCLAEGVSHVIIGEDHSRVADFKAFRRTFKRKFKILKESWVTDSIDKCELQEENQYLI
UniProt P49459, whole entry: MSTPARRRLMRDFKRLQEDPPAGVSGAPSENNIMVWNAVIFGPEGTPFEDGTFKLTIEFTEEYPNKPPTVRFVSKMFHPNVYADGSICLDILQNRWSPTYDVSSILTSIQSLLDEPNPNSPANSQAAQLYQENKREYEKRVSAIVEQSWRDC

Compound: Cc1nc(Nc2ncc(C(=O)Nc3c(C)cccc3Cl)s2)cc(N2CCN(CCO)CC2)n1 [dasatinib]
Assay: log2 fold change of tryptic peptide abundance, ligand vs vehicle (limited proteolysis) (log2 ratio); higher = more trypsin-susceptible (destabilized)
Conditions: ligand concentration: 5 uM; sample: K562 cleared lysate

| Target | log2 fold change |
| --- | --- |
| NUP153 (peptide sequence: VTDNKCIACQAAK, peptide start residue: 673) (UniProt P49790) | 0.682 |
| SEC24C (peptide sequence: LFLFHTSLPIAEAPGK, peptide start residue: 639) (UniProt P53992) | -0.314 |
| STAT2 (peptide sequence: ILQETLNELDKR, peptide start residue: 198) (UniProt P52630) | 0.58 |
| GDI2 (peptide sequence: KNDIYGED, peptide start residue: 438) (UniProt P50395) | -0.0588 |
| CCT4 (peptide sequence: EDIEFICK, peptide start residue: 331) (UniProt P50991) | -0.468 |
| UQCRFS1 (peptide sequence: EIEQEAAVELSQLRDPQHDLDR, peptide start residue: 183) (UniProt P47985) | 0.0317 |
| DNA2 (peptide sequence: GGVSNVTEAK, peptide start residue: 909) (UniProt P51530) | 0.622 |
| LIG4 (peptide sequence: LILPQLER, peptide start residue: 70) (UniProt P49917) | -0.485 |
| UniProt P49459 (peptide sequence: RVSAIVEQSWRDC, peptide start residue: 140) | -0.412 |
